Reference: US20180155757A1, “IDENTIFICATION OF BACTERIA THAT ARE RESISTANT TO CARBAPENEMS BY MEMBRANE IMPERVIOUSNESS” (BIOMÉRIEUX, priority 2015, published 2018)

Experiments:
[1] = tested on: Model strains: membrane impermeability; test: Diffusion of indicator carbapenem and PMBN from one and the same Etest strip; type: cell-based
[2] = tested on: Model strains: carbapenemase production; test: as above; type: cell-based
[3] = impregnating solution [PMBN] 100 μg/ml
[4] = impregnating solution [PMBN] 200 μg/ml
[5] = impregnating solution [PMBN] 300 μg/ml

Row | SMILES | Number of positive strains/number of strains tested [1, 3] | Number of positive strains/number of strains tested [1, 4] | Number of positive strains/number of strains tested [1, 5] | Number of positive strains/number of strains tested [2, 3] | Number of positive strains/number of strains tested [2, 4] | Number of positive strains/number of strains tested [2, 5]
1 | C[C@@H](O)[C@H]1C(=O)N2C(C(=O)O)=C(S[C@@H]3CN[C@H](C(=O)N(C)C)C3)[C@H](C)[C@H]12 [MP, meropenem] | 11/15 | 13/15 | 14/15 | 0/3 | 0/3 | 0/3
2 | C[C@@H](O)[C@H]1C(=O)N2C(C(=O)O)=C(S[C@@H]3CN[C@H](C(=O)Nc4cccc(C(=O)O)c4)C3)[C@H](C)[C@H]12 [ETP, ertapenem] | 10/16 | 10/16 | 13/16 | 0/6 | 1/6 | 1/6
